PubChem BioAssay AID1259307, Sanger Institute – 2017
Shown is a random part of 794 deposited reagents. Over the whole deposit, 15 (1.9%) were called active. 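Calls reflect lethality without any drug; synergy scores did not enter the calls.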 Unmarked entries are inactive. No viability above 1 is reported: the scale is capped. Reagent sequences are not shown. The record does not give: the amount of reagent, the time to read-out.

Purpose: 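Identify kinases needed for SW620 growth or enhancing BYL719, cetuximab or trametinib effects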 (primary screen)
Cell system: SW620 colorectal cancer cells
Knock-down reagent: siRNA pool against human genes
Conditions: anchor drugs BYL719 at 1 µM, cetuximab at 5 µg/ml or trametinib at 10 nM, each beside a DMSO vehicle arm
Read-out: 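Cell viability in each well relative to non-targeting controls, averaged over replicates and turned into a robust z-score; synergy with BYL719 (1 µM), cetuximab (5 µg/ml), trametinib (10 nM) versus DMSO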
Scale: viability robust z-score, no drug and viability vs control, no drug: higher = more viable cells; synergy score with BYL719 and synergy score with cetuximab and synergy score with trametinib: higher = stronger synthetic lethality with the drug
Rule for the call: 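a knock-down counts as lethal alone if its drug-free robust viability z-score is lower than -3, regardless of synergy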
Meaning of the calls: active = essential (lethal alone); inactive = no change alone

gene symbol,"viability robust z-score, no drug","viability vs control, no drug",synergy score with BYL719,synergy score with cetuximab,synergy score with trametinib
UHMK1 (GeneID 127933),0.736,1,0.0867,0.0523,0.0051
TSSK1B (GeneID 83942),0.736,1,-0.0919,0,-0.0669
ARID1A (GeneID 8289),-1.37,0.805,-0.0607,-0.0557,-0.0752
UCKL1 (GeneID 54963),0.736,1,0.00481,0.0985,0.0295
BUB1 (GeneID 699),0.736,1,0.132,0.13,0.0416
CDK17 (GeneID 5128),-2.4,0.711,-0.0292,0.017,-0.0519
IPPK (GeneID 64768),-2.05,0.743,-0.149,-0.148,-0.187
FN3KRP (GeneID 79672),-1.38,0.805,-0.0893,-0.0829,-0.0149
RPS6KA1 (GeneID 6195),-0.0277,0.93,0.108,0.0946,0.0489
PANK1 (GeneID 53354),0.736,1,-0.0125,0,-0.0695
PRKCA (GeneID 5578),-0.615,0.875,-0.0559,-0.0628,0.023
NME7 (GeneID 29922),0.736,1,-0.0647,0.0127,-0.086
AURKC (GeneID 6795),-1.76,0.769,-0.23,-0.231,-0.126
CDKL4 (GeneID 344387),0.736,1,0.000814,0,0.0143
NME5 (GeneID 8382),0.483,0.977,0.0222,0.0573,0.0964
CSK (GeneID 1445),0.736,1,-0.0919,0,-0.0737
PTGS1 (GeneID 5742),-1.16,0.825,0.0151,0.00111,0.058
SMAD4 (GeneID 4089),0.44,0.973,-0.0633,0.0802,-0.0719
ABL2 (GeneID 27),0.389,0.968,-0.0863,-0.032,0.0265
CLK3 (GeneID 1198),0.736,1,-0.0119,0,0.0501
AXL (GeneID 558),0.277,0.958,-0.0522,-0.0423,-0.0719
PPP2R1A (GeneID 5518),0.736,1,-0.0919,0,-0.165
NAGK (GeneID 55577),-2.16,0.733,-0.155,-0.112,-0.134
HIPK2 (GeneID 28996),0.736,1,-0.0735,0,0.0923
WNK4 (GeneID 65266),-1.18,0.823,-0.171,-0.00999,-0.0365
DLG2 (GeneID 1740),0.66,0.993,0.0333,-0.00699,0.0606
PRKAB1 (GeneID 5564),-0.0213,0.93,0.132,-0.00675,-0.0574
MAPK3 (GeneID 5595),0.377,0.967,-0.0262,0.00682,0.0497
TNIK (GeneID 23043),0.736,1,-0.063,0,0.0589
STK32A (GeneID 202374),0.677,0.995,-0.0325,-0.00542,-0.0707
NTN4 (GeneID 59277),-1.14,0.826,0.0412,0.0633,0.0797
MATK (GeneID 4145),-0.853,0.853,-0.0989,0.00254,-0.0641
SYK (GeneID 6850),-0.0783,0.925,0.21,0.152,0.242
PRKDC (GeneID 5591),-0.594,0.877,-0.0189,0.0204,0.0861

Limited to “viability robust z-score, no drug” (2 entries from above):
RPS6KA1 (GeneID 6195) = -0.0277
PANK1 (GeneID 53354) = 0.736
